Patent US9463195B2, “Dissolution of amyloid fibrils by flavonoids and other compounds” (The Regents of the University of California, priority 2006, dated 2016)
For at least one compound, name, drawing or mass did not settle the structure.

Molecular target: preformed human β-2 microglobulin fibrils (Homo sapiens, UniProt P61769)
Assay: Thioflavin T fluorescence high-throughput screen (slope assay score) for disruption of preformed fibrils
Format: biochemical
Method: As used herein, “slope assay score” means the slope of the relative fluorescence of thioflavin T versus time curve for a given compound in a thioflavin T fluorescence assay. A negative slope signifies a decrease in thioflavin T fluorescence over time.
The human β-2 microglobulin fibrils were prepared in vitro at 0.1 mg/mL protein in 25 mM phosphate, pH 2, 0.2 M NaCl without agitation for 1 week at 37° C., in the same manner as Ivanova et al. See Ivanova et al. (Proc Natl Acad Sci U.S.A. 2004 Jul. 20; 101(29):10584-9).
In our experiments, disruption of the fibrillar structure of preformed β-2 microglobulin fibrils was monitored by fluorescence. […] Thioflavin T binds specifically to human β-2 microglobulin fibrils, causing a red shift in the fluorescence excitation spectra of the dye to produce a peak in the fluorescence emission spectrum at 482 nm when the excitation wavelength is set at 444 nm. […]
In the fluorescence assay used here, preformed human β-2 microglobulin fibrils were mixed with a solution of 5 μM ThT in 50 mM glycine, pH 8.6 in a 3:14 ratio (final concentrations: 4.1 μM ThT, 41.2 mM glycine, 0.018 mg/mL β-2 microglobulin, 35 mM NaCl and 4.4 mM phosphate). Fluorescence was measured immediately after mixing (excitation wavelength set at 444 nm, emission wavelengths at 482, 490, and 502 nm) with a Molecular Devices FlexStation II. […]

With `C=CC1=C(C)c2cc3[nH]c(cc4nc(cc5[nH]c(cc1n2)c(C)c5CCC(=O)O)C(CCC(=O)O)=C4C)c(C)c3C=C` [protoporphyrin IX] the “effective in the fluorescence assay at disrupting β-2 microglobulin fibers” value was “effective”.
